Results taken from the supplement of paper PMC10849652.
The list shows a part of the results.

Amino acid sequences for entries named in this document (tags omitted). A change or cut given only in a name is not applied to a line headed by its entry.
UniProt P02545: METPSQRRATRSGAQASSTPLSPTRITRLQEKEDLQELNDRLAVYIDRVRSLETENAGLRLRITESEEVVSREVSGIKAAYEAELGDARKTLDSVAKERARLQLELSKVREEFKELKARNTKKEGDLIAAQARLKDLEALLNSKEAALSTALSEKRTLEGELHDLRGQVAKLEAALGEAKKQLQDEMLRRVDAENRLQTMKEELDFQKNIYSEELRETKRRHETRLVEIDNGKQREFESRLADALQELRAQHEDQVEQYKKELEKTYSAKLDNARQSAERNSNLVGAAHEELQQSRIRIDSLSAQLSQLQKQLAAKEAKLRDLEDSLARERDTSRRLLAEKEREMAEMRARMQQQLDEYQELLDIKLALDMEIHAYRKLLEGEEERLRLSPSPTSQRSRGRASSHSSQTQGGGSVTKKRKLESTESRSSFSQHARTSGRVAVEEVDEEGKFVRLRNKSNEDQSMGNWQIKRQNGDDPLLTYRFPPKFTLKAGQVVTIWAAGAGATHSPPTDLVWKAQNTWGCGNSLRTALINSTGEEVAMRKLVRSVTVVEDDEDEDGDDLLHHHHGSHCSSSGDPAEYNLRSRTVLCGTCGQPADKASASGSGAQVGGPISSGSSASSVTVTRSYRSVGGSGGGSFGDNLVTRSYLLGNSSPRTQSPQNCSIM
UniProt Q14739: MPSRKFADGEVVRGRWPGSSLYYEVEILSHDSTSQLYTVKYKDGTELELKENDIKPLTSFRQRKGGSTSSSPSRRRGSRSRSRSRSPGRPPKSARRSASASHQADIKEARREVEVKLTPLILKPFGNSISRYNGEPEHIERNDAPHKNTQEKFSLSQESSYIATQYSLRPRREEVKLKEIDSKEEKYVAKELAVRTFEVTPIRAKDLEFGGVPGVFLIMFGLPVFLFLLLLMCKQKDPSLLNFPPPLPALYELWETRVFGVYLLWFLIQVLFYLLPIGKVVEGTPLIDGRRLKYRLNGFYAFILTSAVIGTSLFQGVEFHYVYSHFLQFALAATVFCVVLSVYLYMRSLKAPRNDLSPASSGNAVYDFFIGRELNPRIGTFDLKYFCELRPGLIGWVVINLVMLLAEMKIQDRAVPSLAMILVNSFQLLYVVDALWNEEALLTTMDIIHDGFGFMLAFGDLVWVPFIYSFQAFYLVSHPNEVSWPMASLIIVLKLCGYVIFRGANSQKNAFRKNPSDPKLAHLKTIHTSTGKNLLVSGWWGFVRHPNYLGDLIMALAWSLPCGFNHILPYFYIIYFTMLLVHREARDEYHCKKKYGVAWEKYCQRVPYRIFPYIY
UniProt Q8ND56: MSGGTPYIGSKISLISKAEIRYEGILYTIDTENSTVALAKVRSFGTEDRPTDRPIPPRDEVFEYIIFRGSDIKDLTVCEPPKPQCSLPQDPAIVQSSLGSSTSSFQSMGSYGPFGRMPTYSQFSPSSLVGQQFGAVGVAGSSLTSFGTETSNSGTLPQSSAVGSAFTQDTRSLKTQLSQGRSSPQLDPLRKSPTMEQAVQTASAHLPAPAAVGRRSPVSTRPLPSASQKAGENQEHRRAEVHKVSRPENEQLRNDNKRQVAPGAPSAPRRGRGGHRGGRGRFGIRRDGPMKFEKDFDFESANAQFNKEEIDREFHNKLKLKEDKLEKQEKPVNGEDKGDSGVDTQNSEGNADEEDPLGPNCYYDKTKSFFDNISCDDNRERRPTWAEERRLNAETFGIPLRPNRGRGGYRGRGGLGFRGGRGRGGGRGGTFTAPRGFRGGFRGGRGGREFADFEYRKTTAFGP
UniProt Q9H9A6: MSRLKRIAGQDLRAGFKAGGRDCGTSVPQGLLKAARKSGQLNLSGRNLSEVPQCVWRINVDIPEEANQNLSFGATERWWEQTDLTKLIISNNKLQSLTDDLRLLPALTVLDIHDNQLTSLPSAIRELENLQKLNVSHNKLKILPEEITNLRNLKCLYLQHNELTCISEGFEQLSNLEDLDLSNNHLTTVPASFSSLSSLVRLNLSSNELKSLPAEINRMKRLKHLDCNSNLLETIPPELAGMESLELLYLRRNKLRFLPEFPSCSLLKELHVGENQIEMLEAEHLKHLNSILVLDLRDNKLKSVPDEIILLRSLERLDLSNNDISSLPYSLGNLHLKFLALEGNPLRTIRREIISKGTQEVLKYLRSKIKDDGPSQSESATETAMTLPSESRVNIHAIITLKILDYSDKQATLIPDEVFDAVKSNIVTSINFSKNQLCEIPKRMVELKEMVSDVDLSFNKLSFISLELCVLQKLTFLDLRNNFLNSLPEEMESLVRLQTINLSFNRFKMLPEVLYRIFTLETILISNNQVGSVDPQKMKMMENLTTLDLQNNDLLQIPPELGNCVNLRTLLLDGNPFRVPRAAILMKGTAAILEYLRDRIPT
UniProt O15116: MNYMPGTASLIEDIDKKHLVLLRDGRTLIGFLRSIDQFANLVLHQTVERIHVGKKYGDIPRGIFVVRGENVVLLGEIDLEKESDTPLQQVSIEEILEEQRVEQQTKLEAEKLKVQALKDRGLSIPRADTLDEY
UniProt Q96GY3: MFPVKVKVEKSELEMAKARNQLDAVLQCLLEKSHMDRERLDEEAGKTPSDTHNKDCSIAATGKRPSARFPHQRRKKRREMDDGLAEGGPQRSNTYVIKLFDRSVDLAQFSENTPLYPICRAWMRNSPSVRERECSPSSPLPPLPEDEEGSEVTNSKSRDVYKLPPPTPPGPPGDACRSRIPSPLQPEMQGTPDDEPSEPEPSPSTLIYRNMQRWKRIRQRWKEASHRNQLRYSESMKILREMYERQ
UniProt P13796: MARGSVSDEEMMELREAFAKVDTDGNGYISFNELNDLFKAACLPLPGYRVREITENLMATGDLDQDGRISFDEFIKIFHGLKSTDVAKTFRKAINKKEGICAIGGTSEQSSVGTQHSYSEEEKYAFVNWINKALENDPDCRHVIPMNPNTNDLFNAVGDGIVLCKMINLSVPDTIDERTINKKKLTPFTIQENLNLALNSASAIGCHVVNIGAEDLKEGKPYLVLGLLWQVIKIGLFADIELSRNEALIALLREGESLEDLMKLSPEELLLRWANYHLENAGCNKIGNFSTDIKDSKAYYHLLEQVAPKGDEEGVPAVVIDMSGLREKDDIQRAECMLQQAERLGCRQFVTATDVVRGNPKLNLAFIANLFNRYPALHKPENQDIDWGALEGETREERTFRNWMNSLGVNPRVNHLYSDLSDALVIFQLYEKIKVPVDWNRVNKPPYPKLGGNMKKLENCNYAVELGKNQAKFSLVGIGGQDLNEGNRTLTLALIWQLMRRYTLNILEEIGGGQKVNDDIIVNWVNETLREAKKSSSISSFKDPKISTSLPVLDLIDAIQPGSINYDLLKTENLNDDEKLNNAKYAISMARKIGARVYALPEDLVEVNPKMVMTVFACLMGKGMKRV
UniProt Q8N9N7: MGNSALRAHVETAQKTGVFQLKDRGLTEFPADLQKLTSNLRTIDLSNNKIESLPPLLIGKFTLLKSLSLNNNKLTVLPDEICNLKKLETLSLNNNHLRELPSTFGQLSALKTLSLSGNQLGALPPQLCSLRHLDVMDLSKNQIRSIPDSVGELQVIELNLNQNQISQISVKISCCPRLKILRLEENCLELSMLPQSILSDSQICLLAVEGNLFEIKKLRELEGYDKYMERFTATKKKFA
UniProt P09382, whole entry, looked up: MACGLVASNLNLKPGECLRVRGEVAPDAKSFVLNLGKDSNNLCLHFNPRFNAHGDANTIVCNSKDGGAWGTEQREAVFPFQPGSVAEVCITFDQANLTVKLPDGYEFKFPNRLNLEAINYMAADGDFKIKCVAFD
UniProt P50851: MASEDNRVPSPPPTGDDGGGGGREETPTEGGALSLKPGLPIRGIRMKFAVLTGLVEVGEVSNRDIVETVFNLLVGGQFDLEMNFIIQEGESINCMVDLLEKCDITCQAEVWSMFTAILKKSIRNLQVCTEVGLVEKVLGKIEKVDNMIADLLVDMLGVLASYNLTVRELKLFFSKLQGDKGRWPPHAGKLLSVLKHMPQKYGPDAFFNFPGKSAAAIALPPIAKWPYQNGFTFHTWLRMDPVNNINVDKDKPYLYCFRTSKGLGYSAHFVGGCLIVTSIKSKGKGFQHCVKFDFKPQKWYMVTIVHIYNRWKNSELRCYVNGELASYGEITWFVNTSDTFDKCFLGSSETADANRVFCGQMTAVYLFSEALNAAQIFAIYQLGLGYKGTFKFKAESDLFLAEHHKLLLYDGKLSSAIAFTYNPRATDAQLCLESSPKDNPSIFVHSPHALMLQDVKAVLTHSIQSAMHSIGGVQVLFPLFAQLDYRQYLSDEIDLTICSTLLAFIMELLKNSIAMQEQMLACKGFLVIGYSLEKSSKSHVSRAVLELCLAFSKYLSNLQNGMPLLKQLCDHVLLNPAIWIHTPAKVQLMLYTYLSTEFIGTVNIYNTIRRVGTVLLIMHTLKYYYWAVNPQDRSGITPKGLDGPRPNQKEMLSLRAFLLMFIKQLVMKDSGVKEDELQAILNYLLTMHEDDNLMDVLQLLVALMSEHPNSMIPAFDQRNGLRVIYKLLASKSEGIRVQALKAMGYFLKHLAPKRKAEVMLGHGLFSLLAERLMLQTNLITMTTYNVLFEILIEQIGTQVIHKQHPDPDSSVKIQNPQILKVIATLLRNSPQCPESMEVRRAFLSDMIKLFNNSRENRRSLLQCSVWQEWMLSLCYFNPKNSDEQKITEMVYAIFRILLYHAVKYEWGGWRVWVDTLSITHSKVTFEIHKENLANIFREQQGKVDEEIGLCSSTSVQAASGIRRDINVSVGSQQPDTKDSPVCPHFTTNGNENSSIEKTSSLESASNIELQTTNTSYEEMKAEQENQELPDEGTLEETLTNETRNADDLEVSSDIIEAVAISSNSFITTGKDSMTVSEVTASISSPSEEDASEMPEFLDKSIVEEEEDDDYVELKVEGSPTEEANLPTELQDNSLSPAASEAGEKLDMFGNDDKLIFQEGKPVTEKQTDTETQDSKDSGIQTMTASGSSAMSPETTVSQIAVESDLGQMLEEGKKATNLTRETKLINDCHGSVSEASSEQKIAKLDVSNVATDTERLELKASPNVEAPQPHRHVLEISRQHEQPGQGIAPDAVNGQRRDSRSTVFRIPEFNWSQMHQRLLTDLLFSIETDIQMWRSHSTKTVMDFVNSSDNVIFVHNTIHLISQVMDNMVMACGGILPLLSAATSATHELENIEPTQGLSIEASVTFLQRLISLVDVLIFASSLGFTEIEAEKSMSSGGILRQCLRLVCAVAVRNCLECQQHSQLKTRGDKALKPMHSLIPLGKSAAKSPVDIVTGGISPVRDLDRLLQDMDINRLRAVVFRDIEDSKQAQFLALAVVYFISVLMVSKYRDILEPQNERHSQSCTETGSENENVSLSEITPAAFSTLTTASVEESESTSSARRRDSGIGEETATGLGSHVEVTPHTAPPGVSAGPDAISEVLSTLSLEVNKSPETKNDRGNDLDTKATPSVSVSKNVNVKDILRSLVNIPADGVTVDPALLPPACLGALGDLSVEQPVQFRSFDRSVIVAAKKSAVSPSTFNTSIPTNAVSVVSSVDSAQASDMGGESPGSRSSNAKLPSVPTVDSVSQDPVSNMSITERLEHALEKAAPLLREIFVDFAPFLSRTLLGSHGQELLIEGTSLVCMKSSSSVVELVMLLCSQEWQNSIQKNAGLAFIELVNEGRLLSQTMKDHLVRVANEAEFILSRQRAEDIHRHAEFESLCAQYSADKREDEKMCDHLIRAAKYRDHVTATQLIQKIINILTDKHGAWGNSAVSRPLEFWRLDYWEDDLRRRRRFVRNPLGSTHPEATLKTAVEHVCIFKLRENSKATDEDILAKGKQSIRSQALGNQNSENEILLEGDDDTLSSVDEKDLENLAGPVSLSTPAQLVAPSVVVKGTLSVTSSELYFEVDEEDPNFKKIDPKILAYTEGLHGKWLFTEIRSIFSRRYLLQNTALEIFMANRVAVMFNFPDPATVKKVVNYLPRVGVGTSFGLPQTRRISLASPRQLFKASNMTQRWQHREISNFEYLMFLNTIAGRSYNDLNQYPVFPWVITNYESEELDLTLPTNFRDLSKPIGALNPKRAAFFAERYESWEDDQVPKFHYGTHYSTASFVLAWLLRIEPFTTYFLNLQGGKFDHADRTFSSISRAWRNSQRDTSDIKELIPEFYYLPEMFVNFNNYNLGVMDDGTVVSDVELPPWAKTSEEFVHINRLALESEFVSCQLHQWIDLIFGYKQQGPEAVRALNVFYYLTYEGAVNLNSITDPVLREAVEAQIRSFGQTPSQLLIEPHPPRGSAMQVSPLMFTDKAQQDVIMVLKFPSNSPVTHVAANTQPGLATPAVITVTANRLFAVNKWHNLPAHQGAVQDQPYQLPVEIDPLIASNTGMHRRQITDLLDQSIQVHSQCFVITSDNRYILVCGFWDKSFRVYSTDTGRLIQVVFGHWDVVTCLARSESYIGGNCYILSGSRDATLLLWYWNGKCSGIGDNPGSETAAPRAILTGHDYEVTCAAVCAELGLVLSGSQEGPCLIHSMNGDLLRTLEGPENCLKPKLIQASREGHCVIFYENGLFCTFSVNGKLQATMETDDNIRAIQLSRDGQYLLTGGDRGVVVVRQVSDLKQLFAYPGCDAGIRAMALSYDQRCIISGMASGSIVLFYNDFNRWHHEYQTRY

Key:
Test in all cases: log2 fold change, soluble protein after heating vs DMSO (PISA); higher = thermal stabilisation; K562 lysate, 10 uM; active = over 0.2 and 3.5 SD of the protein, either way, in both replicates (recomputed)
vemurafenib = compound: CCCS(=O)(=O)Nc1ccc(F)c(C(=O)c2c[nH]c3ncc(-c4ccc(Cl)cc4)cc23)c1F [vemurafenib]
Method in brief: (§1)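 K562 pellets were dounce-homogenised in PBS pH 7.4 containing 1 mM MgCl2, and the crude extract, at 1 mg/mL protein, was exposed to 10 μM compound for 30 min. Aliquots were heated for 3 min across 48°C-58°C, pooled, brought to 0.5% NP-40 at 4°C and spun at 21,000xg for 90 min, with the supernatant taken as soluble protein. TMTpro 16plex LC-MS/MS with equalised channel sums quantified that protein. Values are log-two fold changes in thermal stability relative to solvent controls, taken from duplicates.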

[1] = compound: CCCS(=O)(=O)Nc1ccc(F)c(C(=O)c2c[nH]c3ncc(Cl)cc23)c1F
Method in brief: as §1

barasertib = compound: CCN(CCCOc1ccc2c(Nc3cc(CC(=O)Nc4cccc(F)c4)[nH]n3)ncnc2c1)CCOP(=O)(O)O [barasertib]
Method in brief: as §1

[2] = compound: CC[C@@H]1C(=O)N(C)c2cnc(Nc3ccc(C(=O)NC4CCN(C)CC4)cc3OC)nc2N1C1CCCC1
Method in brief: as §1

volasertib = compound: CC[C@@H]1C(=O)N(C)c2cnc(Nc3ccc(C(=O)N[C@H]4CC[C@H](N5CCN(CC6CC6)CC5)CC4)cc3OC)nc2N1C(C)C [volasertib]
Method in brief: as §1

[3] = compound: CCn1c(C(=O)N(C2CC2)C2CC2)cc2c3c(ncn3C)c(Nc3cc(C)n(C)n3)nc21
Method in brief: as §1

[4] = compound: CCn1cc(-c2ccnc3[nH]c(-c4cccc(CN(C)C)c4)cc23)c(-c2ccc(NC(=O)N(C)C)cc2)n1
Method in brief: as §1

[5] = compound: CN1CCC(CNc2ccc3ncc(-c4cccc(OC(F)(F)F)c4)n3n2)CC1
Method in brief: as §1

saracatinib = compound: CN1CCN(CCOc2cc(OC3CCOCC3)c3c(Nc4c(Cl)ccc5c4OCO5)ncnc3c2)CC1 [saracatinib]
Method in brief: as §1

sotrastaurin = compound: CN1CCN(c2nc(C3=C(c4c[nH]c5ccccc45)C(=O)NC3=O)c3ccccc3n2)CC1 [sotrastaurin]
Method in brief: as §1

alvocidib = compound: CN1CC[C@H](c2c(O)cc(O)c3c(=O)cc(-c4ccccc4Cl)oc23)[C@H](O)C1 [alvocidib]
Method in brief: as §1

Tubastatin A = compound: CN1CCc2c(c3ccccc3n2Cc2ccc(C(=O)NO)cc2)C1 [Tubastatin A]
Method in brief: as §1

[6] = compound: CNC(=O)C1=CC=CC=C1NC2=NC(=NC=C2Cl)NC3=C(C=C(C=C3)N4CCOCC4)OC
Method in brief: as §1

defactinib = compound: CNC(=O)c1ccc(Nc2ncc(C(F)(F)F)c(NCc3nccnc3N(C)S(C)(=O)=O)n2)cc1 [defactinib]
Method in brief: as §1

[7] = compound: CNc1nc(-c2ccc3c(N)n[nH]c3c2)cc(N2C[C@@H](C(=O)NC3CCCCC3)CC[C@H]2C)n1
Method in brief: as §1

encorafenib = compound: COC(=O)N[C@@H](C)CNc1nccc(-c2cn(C(C)C)nc2-c2cc(Cl)cc(NS(C)(=O)=O)c2F)n1 [encorafenib]
Method in brief: as §1

[8] = compound: COC(=O)[C@H](CCSC)NC(=O)C1=C(C=C(C=C1)NC[C@H](CS)N)C2=CC=CC=C2
Method in brief: as §1

alisertib = compound: COc1cc(Nc2ncc3c(n2)-c2ccc(Cl)cc2C(c2c(F)cccc2OC)=NC3)ccc1C(=O)O [alisertib]
Method in brief: as §1

[9] = compound: COc1cc2nc(-c3cc(F)ccc3O)nc(N[C@@H]3CNC[C@H]3C(C)(C)O)c2cc1OC
Method in brief: as §1

gefitinib = compound: COc1cc2ncnc(Nc3ccc(F)c(Cl)c3)c2cc1OCCCN1CCOCC1 [gefitinib]
Method in brief: as §1

Row | Target | log2 fold change (vemurafenib) | log2 fold change [1] | log2 fold change (barasertib) | log2 fold change [2] | log2 fold change (volasertib) | log2 fold change [3] | log2 fold change [4] | log2 fold change [5] | log2 fold change (saracatinib) | log2 fold change (sotrastaurin) | log2 fold change (alvocidib) | log2 fold change (Tubastatin A) | log2 fold change [6] | log2 fold change (defactinib) | log2 fold change [7] | log2 fold change (encorafenib) | log2 fold change [8] | log2 fold change (alisertib) | log2 fold change [9] | log2 fold change (gefitinib)
1 | LMNA (UniProt P02545) | inactive: -0.075 | inactive: 0.001 | inactive: 0.186 | inactive: -0.014 | inactive: 0.013 | inactive: 0.022 | inactive: -0.018 | inactive: 0.033 | inactive: 0.018 | inactive: -0.003 | inactive: 0.001 | inactive: -0.006 | inactive: -0.013 | inactive: -0.003 | inactive: -0.061 | inactive: 0 | inactive: -0.052 | inactive: -0.036 | inactive: 0.022 | inactive: 0.023
2 | LIMA1 isoform 4 (UniProt Q9UHB6) | inactive: 0.011 | inactive: 0.021 | inactive: 0.012 | inactive: 0.052 | inactive: 0.003 | inactive: -0.037 | inactive: 0.048 | inactive: -0.044 | inactive: 0.012 | inactive: -0.021 | inactive: 0.011 | inactive: 0.008 | inactive: -0.045 | inactive: -0.001 | inactive: 0.027 | inactive: -0.007 | inactive: 0.012 | inactive: -0.005 | inactive: -0.003 | inactive: -0.043
3 | LCMT1 (UniProt Q9UIC8) | inactive: -0.054 | inactive: -0.002 | inactive: -0.006 | inactive: 0.026 | inactive: 0.003 | inactive: -0.021 | inactive: 0.065 | inactive: -0.023 | inactive: -0.017 | inactive: -0.033 | inactive: 0.011 | inactive: 0.005 | inactive: -0.012 | inactive: -0.006 | inactive: -0.027 | inactive: 0.009 | inactive: -0.028 | inactive: -0.011 | inactive: 0 | inactive: 0.053
4 | LBR (UniProt Q14739) | inactive: 0.012 | inactive: 0.008 | inactive: 0.041 | inactive: 0.014 | inactive: 0.156 | inactive: 0.052 | inactive: 0.117 | inactive: -0.22 | inactive: 0.064 | inactive: 0.048 | inactive: 0.072 | inactive: 0.025 | inactive: -0.063 | inactive: 0.04 | inactive: -0.002 | inactive: -0.021 | inactive: 0.027 | inactive: 0.071 | inactive: 0.001 | inactive: -0.094
5 | LNPK (UniProt Q9C0E8) | inactive: -0.012 | inactive: -0.038 | inactive: -0.025 | inactive: 0.066 | inactive: 0.011 | inactive: 0.036 | inactive: -0.204 | inactive: 0.042 | inactive: 0.023 | inactive: 0.005 | inactive: -0.061 | inactive: 0.01 | inactive: 0.007 | inactive: -0.011 | inactive: -0.012 | inactive: 0.017 | inactive: -0.071 | inactive: -0.013 | inactive: 0.011 | inactive: 0.052
6 | LSM14A isoform 2 (UniProt Q8ND56) | inactive: -0.097 | inactive: 0.031 | inactive: 0.048 | inactive: 0.092 | inactive: 0.02 | inactive: 0.04 | inactive: -0.073 | inactive: 0.076 | inactive: 0.003 | inactive: 0.001 | inactive: 0.009 | inactive: -0.024 | inactive: -0.01 | inactive: 0.053 | inactive: 0.02 | inactive: 0.02 | inactive: -0.036 | inactive: 0.015 | inactive: 0.015 | inactive: -0.038
7 | LRRC40 (UniProt Q9H9A6) | inactive: 0.004 | inactive: 0.015 | inactive: 0.034 | inactive: -0.024 | inactive: -0.011 | inactive: 0.018 | inactive: 0.052 | inactive: -0.052 | inactive: 0 | inactive: 0.021 | inactive: -0.009 | inactive: -0.089 | inactive: 0.019 | inactive: 0.013 | inactive: -0.012 | inactive: 0.021 | inactive: -0.038 | inactive: 0.031 | inactive: -0.008 | inactive: 0.001
8 | LSM1 (UniProt O15116) | inactive: -0.046 | inactive: 0.038 | inactive: -0.079 | inactive: 0.04 | inactive: 0.031 | inactive: 0.084 | inactive: -0.186 | inactive: 0.029 | inactive: -0.025 | inactive: -0.019 | inactive: -0.005 | inactive: 0.014 | inactive: 0.064 | inactive: 0.075 | inactive: -0.007 | inactive: -0.016 | inactive: -0.022 | inactive: 0.001 | inactive: -0.042 | inactive: -0.115
9 | LIN37 (UniProt Q96GY3) | inactive: 0.179 | inactive: -0.101 | inactive: 0.019 | inactive: 0.069 | inactive: 0.031 | inactive: 0.155 | inactive: -0.079 | inactive: 0.113 | inactive: 0.041 | inactive: -0.034 | inactive: -0.129 | inactive: -0.09 | inactive: -0.05 | inactive: 0.105 | inactive: -0.002 | inactive: -0.317 | inactive: 0.159 | inactive: -0.081 | inactive: 0 | inactive: 0.065
10 | LETM1 (UniProt O95202) | inactive: 0.029 | inactive: 0.005 | inactive: -0.015 | inactive: -0.012 | inactive: 0.01 | inactive: -0.015 | inactive: 0.08 | active: -0.287 | inactive: -0.002 | inactive: -0.014 | inactive: -0.046 | inactive: -0.033 | inactive: 0.018 | inactive: -0.007 | inactive: -0.027 | inactive: -0.001 | inactive: -0.018 | inactive: -0.022 | inactive: -0.166 | inactive: -0.04
11 | LCP1 (UniProt P13796) | inactive: 0.001 | inactive: -0.004 | inactive: -0.05 | inactive: 0.029 | inactive: 0.024 | inactive: -0.013 | inactive: 0.029 | inactive: 0.041 | inactive: -0.012 | inactive: 0.015 | inactive: -0.053 | inactive: 0.056 | inactive: -0.004 | inactive: -0.032 | inactive: 0.014 | inactive: -0.024 | inactive: -0.021 | inactive: 0.012 | inactive: 0.008 | inactive: -0.031
12 | LRRC57 (UniProt Q8N9N7) | inactive: -0.016 | inactive: -0.076 | inactive: 0.002 | inactive: 0.096 | inactive: 0.062 | inactive: 0.007 | inactive: -0.106 | inactive: 0.07 | inactive: -0.02 | inactive: 0.014 | inactive: -0.029 | inactive: 0.032 | inactive: 0.014 | inactive: -0.027 | inactive: 0.025 | inactive: 0.066 | inactive: -0.063 | inactive: -0.007 | inactive: 0.018 | inactive: 0.019
13 | LMTK2 (UniProt Q8IWU2) | inactive: 0.017 | inactive: 0.071 | inactive: -0.05 | inactive: 0.018 | inactive: -0.105 | inactive: -0.063 | inactive: -0.029 | inactive: 0.063 | inactive: 0.044 | inactive: 0 | inactive: -0.018 | inactive: 0.014 | inactive: 0.013 | inactive: -0.067 | inactive: -0.037 | inactive: 0.028 | inactive: 0.05 | inactive: -0.043 | inactive: 0.046 | inactive: -0.102
14 | LGALS1 (UniProt P09382) | inactive: 0.011 | inactive: -0.014 | inactive: 0.111 | inactive: 0.03 | inactive: 0.052 | inactive: -0.005 | inactive: -0.016 | inactive: -0.042 | inactive: -0.031 | inactive: -0.054 | inactive: 0.024 | inactive: 0.048 | inactive: -0.006 | inactive: 0.006 | inactive: 0.068 | inactive: 0.007 | inactive: -0.043 | inactive: 0.038 | inactive: -0.006 | inactive: -0.041
15 | LIMD1 (UniProt Q9UGP4) | inactive: 0.003 | inactive: 0.013 | inactive: -0.023 | inactive: 0.021 | inactive: -0.01 | inactive: 0.002 | inactive: -0.005 | inactive: 0.003 | inactive: 0.038 | inactive: -0.038 | inactive: -0.03 | inactive: -0.057 | inactive: 0.027 | inactive: 0.011 | inactive: -0.037 | inactive: 0.032 | inactive: -0.082 | inactive: -0.018 | inactive: -0.01 | inactive: -0.04
16 | LRBA (UniProt P50851) | inactive: -0.001 | inactive: 0.003 | inactive: 0.021 | inactive: -0.024 | inactive: -0.021 | inactive: -0.009 | inactive: -0.05 | inactive: 0.033 | inactive: 0.014 | inactive: -0.004 | inactive: -0.01 | inactive: -0.031 | inactive: 0.003 | inactive: 0.004 | inactive: -0.005 | inactive: 0.027 | inactive: -0.03 | inactive: 0.016 | inactive: 0 | inactive: -0.004

Single records, as listed above. Values in the order: log2 fold change (vemurafenib)	log2 fold change [1]	log2 fold change (barasertib)	log2 fold change [2]	log2 fold change (volasertib)	log2 fold change [3]	log2 fold change [4]	log2 fold change [5]	log2 fold change (saracatinib)	log2 fold change (sotrastaurin)	log2 fold change (alvocidib)	log2 fold change (Tubastatin A)	log2 fold change [6]	log2 fold change (defactinib)	log2 fold change [7]	log2 fold change (encorafenib)	log2 fold change [8]	log2 fold change (alisertib)	log2 fold change [9]	log2 fold change (gefitinib)
LETM1 (UniProt O95202) in the list: inactive: 0.029	inactive: 0.005	inactive: -0.015	inactive: -0.012	inactive: 0.01	inactive: -0.015	inactive: 0.08	active: -0.287	inactive: -0.002	inactive: -0.014	inactive: -0.046	inactive: -0.033	inactive: 0.018	inactive: -0.007	inactive: -0.027	inactive: -0.001	inactive: -0.018	inactive: -0.022	inactive: -0.166	inactive: -0.04
LNPK (UniProt Q9C0E8) in the list: inactive: -0.012	inactive: -0.038	inactive: -0.025	inactive: 0.066	inactive: 0.011	inactive: 0.036	inactive: -0.204	inactive: 0.042	inactive: 0.023	inactive: 0.005	inactive: -0.061	inactive: 0.01	inactive: 0.007	inactive: -0.011	inactive: -0.012	inactive: 0.017	inactive: -0.071	inactive: -0.013	inactive: 0.011	inactive: 0.052
